The results in this text go back to article PMC3656144.

The chains behind the UniProt entries cited, without tags or fusion partners.
UniProt P34574: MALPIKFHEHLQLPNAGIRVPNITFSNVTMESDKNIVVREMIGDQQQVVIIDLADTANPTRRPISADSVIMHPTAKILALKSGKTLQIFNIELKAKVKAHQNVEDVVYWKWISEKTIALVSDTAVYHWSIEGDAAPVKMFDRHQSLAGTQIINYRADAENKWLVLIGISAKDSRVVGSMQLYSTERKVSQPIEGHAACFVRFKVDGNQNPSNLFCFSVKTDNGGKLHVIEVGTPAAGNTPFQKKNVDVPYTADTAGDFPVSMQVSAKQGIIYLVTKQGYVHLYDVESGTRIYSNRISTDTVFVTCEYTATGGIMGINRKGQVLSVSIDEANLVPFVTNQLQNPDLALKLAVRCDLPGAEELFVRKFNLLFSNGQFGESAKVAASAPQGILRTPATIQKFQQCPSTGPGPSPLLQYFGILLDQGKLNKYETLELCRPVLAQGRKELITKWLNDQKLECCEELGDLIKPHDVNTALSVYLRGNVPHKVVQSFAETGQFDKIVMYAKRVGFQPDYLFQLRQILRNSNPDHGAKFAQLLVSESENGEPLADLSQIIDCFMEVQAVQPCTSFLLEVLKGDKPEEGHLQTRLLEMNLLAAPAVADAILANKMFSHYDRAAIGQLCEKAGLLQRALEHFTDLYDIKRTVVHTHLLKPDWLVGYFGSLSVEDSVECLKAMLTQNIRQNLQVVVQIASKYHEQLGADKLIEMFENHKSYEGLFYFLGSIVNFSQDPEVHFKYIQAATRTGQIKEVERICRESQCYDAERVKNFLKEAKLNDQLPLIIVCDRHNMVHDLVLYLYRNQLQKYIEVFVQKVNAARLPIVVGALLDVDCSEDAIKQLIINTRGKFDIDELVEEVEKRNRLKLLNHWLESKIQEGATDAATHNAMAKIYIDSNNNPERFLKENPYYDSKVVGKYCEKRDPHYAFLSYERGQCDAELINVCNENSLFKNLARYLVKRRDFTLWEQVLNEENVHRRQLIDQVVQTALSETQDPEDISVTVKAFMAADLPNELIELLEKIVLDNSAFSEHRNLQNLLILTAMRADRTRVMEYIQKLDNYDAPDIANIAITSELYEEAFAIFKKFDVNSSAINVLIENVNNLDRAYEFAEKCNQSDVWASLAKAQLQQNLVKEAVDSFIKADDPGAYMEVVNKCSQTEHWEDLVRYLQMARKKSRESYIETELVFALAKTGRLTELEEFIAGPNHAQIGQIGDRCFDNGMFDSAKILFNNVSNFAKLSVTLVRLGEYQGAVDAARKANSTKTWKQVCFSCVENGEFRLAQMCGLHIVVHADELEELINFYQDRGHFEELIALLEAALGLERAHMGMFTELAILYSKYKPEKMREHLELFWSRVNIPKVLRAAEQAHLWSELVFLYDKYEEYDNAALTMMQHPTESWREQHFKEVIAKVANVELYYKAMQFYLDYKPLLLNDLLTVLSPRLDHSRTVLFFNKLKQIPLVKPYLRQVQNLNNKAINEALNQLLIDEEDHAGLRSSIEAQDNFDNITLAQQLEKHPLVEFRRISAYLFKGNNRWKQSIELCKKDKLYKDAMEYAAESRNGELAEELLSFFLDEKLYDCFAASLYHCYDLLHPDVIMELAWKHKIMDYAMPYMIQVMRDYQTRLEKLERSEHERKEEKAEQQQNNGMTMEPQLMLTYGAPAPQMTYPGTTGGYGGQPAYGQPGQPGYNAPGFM

For experiment [1], the target named is T1, endogenous CED-1 (C. elegans (endogenous in whole animal lysate)) (UniProt Q9XWD6).
T1 sequence: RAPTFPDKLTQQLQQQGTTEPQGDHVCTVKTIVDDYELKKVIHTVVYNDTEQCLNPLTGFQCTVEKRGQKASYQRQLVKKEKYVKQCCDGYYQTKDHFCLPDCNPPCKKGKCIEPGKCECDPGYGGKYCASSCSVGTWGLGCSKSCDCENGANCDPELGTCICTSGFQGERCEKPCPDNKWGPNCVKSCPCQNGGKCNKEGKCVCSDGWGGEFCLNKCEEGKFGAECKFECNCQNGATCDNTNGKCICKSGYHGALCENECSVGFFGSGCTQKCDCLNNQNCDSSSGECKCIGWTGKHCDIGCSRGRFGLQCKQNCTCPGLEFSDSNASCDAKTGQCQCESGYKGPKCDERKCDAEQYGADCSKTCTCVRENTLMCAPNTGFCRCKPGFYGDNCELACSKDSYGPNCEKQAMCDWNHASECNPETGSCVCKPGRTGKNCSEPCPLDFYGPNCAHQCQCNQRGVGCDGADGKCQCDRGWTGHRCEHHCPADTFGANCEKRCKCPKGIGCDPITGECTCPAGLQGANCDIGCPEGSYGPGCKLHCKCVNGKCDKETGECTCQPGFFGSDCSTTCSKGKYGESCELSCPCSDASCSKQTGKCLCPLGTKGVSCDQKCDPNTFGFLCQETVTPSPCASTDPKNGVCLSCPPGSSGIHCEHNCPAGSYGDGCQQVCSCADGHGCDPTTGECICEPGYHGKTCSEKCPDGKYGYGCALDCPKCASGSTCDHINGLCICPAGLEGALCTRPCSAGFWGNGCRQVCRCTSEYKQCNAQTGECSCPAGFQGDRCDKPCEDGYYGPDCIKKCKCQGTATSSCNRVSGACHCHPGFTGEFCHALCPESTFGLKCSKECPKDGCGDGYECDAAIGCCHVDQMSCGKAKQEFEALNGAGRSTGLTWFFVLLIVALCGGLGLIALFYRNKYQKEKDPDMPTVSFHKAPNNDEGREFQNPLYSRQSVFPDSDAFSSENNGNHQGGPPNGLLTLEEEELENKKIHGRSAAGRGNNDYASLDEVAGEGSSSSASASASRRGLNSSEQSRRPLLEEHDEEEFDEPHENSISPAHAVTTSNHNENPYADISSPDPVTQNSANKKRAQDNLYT
The experiment can be described thus: affinity purification with mass spectrometry; immunoprecipitation with CED-1C or CED-6 antibodies from whole cell lysates of N2, ced-1(e1735) and ced-6(n1813) animals; precipitates on SDS-PAGE, gel regions analysed by LC-MS/MS.

Experiment [2] has as its target T2, endogenous CED-6 (C. elegans (endogenous in whole animal lysate)) (UniProt O76337).
T2 sequence: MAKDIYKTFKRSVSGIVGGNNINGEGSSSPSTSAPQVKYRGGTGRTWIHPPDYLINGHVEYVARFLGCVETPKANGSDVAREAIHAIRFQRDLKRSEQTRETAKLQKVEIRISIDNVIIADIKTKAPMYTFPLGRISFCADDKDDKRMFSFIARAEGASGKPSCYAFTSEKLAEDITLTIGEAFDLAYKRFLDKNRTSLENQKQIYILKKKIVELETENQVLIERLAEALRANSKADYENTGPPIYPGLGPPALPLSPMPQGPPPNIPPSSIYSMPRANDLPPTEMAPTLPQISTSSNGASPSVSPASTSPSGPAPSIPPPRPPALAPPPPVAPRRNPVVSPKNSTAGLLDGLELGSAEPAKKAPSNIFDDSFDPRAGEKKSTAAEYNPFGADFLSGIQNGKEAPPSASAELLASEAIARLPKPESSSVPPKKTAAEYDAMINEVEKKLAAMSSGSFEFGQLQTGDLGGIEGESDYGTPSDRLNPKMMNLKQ
Described as above.

These are yes or no findings as the source states them, for the method shown. In cells and extracts the contact can be indirect. These calls come from enrichment with a bait or labelling near it, and not all partners need be listed.

On to “heavy chain of clathrin (CHC-1), endogenous (from UniProt P34574 1-1681)”, for which the binding result in experiment [1] and in experiment [2] was “binds” throughout.
